# Results from PubChem BioAssay AID528 (NMMLSC, 2006).
# By UniProt entry, the sequences of proteins in these tests, tags left out.
# UniProt P13612, whole entry, looked up: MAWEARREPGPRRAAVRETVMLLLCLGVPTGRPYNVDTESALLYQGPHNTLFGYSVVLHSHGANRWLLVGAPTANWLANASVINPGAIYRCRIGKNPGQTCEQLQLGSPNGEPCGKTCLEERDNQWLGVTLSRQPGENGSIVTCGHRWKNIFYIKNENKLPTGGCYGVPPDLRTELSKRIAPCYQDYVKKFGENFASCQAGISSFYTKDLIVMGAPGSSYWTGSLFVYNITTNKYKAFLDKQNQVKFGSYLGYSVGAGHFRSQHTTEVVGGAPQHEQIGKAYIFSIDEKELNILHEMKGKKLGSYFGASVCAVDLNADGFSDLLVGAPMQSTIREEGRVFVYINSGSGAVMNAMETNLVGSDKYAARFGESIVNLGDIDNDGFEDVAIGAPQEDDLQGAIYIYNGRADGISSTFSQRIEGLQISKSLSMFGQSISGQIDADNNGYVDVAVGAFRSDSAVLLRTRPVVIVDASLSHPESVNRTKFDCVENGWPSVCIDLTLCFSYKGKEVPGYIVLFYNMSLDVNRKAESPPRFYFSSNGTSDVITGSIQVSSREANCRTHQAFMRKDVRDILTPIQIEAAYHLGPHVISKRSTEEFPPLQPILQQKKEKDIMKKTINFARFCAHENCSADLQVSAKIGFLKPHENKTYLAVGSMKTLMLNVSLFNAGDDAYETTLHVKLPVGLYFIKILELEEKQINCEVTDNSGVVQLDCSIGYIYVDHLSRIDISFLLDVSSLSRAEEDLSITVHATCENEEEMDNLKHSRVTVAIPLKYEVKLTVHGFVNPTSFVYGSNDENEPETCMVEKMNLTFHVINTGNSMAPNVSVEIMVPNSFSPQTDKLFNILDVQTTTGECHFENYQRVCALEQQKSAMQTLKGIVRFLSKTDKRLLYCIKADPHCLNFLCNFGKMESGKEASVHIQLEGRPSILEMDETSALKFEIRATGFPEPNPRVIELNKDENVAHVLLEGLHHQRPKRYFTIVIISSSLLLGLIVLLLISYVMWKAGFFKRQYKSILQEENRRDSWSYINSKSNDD
# Fewer than 10 of roughly 24,000 compounds were called active. Inconclusive means that the source gave no clear call. Such entries were picked first, then a sample of the others.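 The calls were made as follows: active = fluorescent ligand binding to cells raised by more than 40% of the manganese-induced maximum; inconclusive = compound's own fluorescence above 85% of the ligand control signal; inactive = the rest.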
# Target: Integrin alpha-4 (Homo sapiens) (UniProt P13612)
# Test: enhancers of LDV-FITC binding to VLA-4 integrin, primary screen, Jurkat cells, flow cytometry (AID 528);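 as to activation: 0% = ligand binding without compound and 100% = manganese-stimulated maximal binding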
# Settings: active compounds read high, screened at 10 µM (by protocol)
row,Compound,activation
1,O=C(NCc1ccccn1)C1CCN(S(=O)(=O)c2cnc[nH]2)CC1,inconclusive
2,COc1ccc(C2C(=O)N(C3CCCCC3)CC(=O)N2C2CCCC2)cc1 (configuration not stated),inconclusive
3,Clc1cccc(N2CCN(CCNc3nc4ccccc4n4cnnc34)CC2)c1,inconclusive
4,O=C(CCC1N=C2c3ccccc3N=C(SCc3ccccc3Cl)N2C1=O)NCc1ccco1 (configuration not stated),inconclusive
5,COc1ccc(-n2ncc3c(N4CCN(c5cccc(C)c5C)CC4)ncnc32)cc1,inactive: 2%
6,Cc1cccc2c(=O)oc(-c3ccc4c(c3)C(=O)N(CC3CCCO3)C4=O)nc12 (configuration not stated),inactive: -4%
7,CCOc1cc(-c2ccccc2)nc(N)n1,inconclusive
8,Cc1nc2sc(C(c3ccccc3)N3CCN(C(=O)c4ccco4)CC3)c(O)n2n1 (configuration not stated),inconclusive
9,COC(=O)c1cc(Nc2cc(C)nc3ncnn23)cc(C(=O)OC)c1,inconclusive
10,COc1ccc(-c2cc(N3CCCC3)n3ncnc3n2)cc1,inconclusive
11,COc1ccc(-c2nnc(-c3cccs3)o2)cc1OC,inconclusive
12,COc1cc(OC)cc(C(=O)N2c3ccc(F)cc3CCC2C)c1 (configuration not stated),inconclusive
13,COc1ccc(N2CCN(CCCNS(=O)(=O)c3ccc4c(c3)oc(=O)n4C)CC2)cc1,inconclusive
14,CCOc1cccc2cc(-c3nnc(-c4ccccc4)o3)c(=O)oc12,inactive: -2%
15,Cn1nc(-c2ccc(Cl)cc2)c2cc(C(=O)NCc3ccco3)sc21,inconclusive
16,CCN1C(=O)/C(=C2/Sc3ccc(OC)cc3N2C)SC1=Nc1ccc(C(C)=O)cc1,inconclusive
17,CCc1ccc2[nH]c(=O)c(C(c3nnnn3CC3CCCO3)N3CCN4CCCC4C3)cc2c1 (configuration not stated),inconclusive
18,CCOC(=O)C(C)Sc1nc2c([nH]c3ccccc32)c(=O)n1C (configuration not stated),inconclusive
19,CCOC(=O)C1CCN(S(=O)(=O)c2ccc3[nH]c(=O)oc3c2)CC1,inconclusive
20,COc1cc2c(C(=O)NCc3ccc4c(c3)OCO4)cn(C)c(=O)c2cc1OC,inconclusive
21,CCN1CCN(Cc2ccc(NC(=O)Nc3ccccc3Cl)cc2)CC1,inconclusive
22,CCOC(=O)c1c(N)nn(C(=O)C(C)C)c1-c1ccccc1,inconclusive
23,O=C(O)C1CCN(Cc2cnn(-c3ccccc3)c2-n2cccc2)CC1,inconclusive
24,CCOc1ccccc1NC(=O)CSc1ncnc2c1oc1ccccc12,inconclusive
25,COCCNC(=O)CSc1nc2ccccc2c(=O)n1CC1CCCO1 (configuration not stated),inconclusive

row,Compound,activation
1,COc1ccc(C(N)CCc2ccc(C)o2)cc1 (configuration not stated),inconclusive
2,COc1ccc(C2C(C(=O)Nc3ccccc3OC)=C(C)Nc3ncnn32)cc1 (configuration not stated),inconclusive
3,Cc1ccc(S(=O)(=O)N(CC(=O)NCc2ccco2)Cc2ccccc2F)cc1,inactive: 1%
4,CCOc1cc(C(=O)NCc2nnc(SCC(=O)OC)n2C)cc(OCC)c1OCC,inactive: 0.3%
5,C/C(=N\O)c1ccc2c3ccccc3n(C)c2c1,inconclusive
6,Cc1ccc2cc(CN(Cc3ccc(F)cc3)Cc3nnnn3C3CCCC3)c(=O)[nH]c2c1,inconclusive
7,Cc1cc(C)cc(NC(=O)CSc2nnc(Cn3c(=O)sc4ccccc43)n2C)c1,inconclusive
8,O=C(NC1CC1)c1c[nH]c2ccc(S(=O)(=O)Nc3cccc(C(F)(F)F)c3)cc2c1=O,inconclusive
9,CN(C)S(=O)(=O)N1CCN(c2cccc(Cl)c2)CC1,inconclusive
10,O=C1SC(c2ccccc2)=C/C1=C\N1CCCCC1,inconclusive
11,O=C(O)c1cc2nc(C3CC3)cc(C(F)(F)F)n2n1,inactive: 2%
12,Cn1c(Cn2c(=O)sc3ccccc32)nnc1SCC(=O)Nc1ccc(F)cc1,inconclusive
13,CCOC(=O)CNC(=O)CN1C(=O)CCSc2ccccc21,inactive: 6%
14,CC(=O)N1c2ccc(S(=O)(=O)CCC(=O)O)cc2CC1C (configuration not stated),inactive: -3%
15,CS(=O)(=O)c1nc(-c2ccccc2)cc(C(F)(F)F)n1,inconclusive
16,COC(=O)c1cc(Br)c(=O)n(CCC2=CCCCC2)c1,inactive: 5%
17,CN1C(=O)CSc2ccc(NC(=O)N3CCC(N4CCCCC4)CC3)cc21,inconclusive
18,CCOC(=O)N1CCN(C(=O)c2oc3ccc(S(=O)(=O)N4CC(C)CC(C)C4)cc3c2C)CC1 (configuration not stated),inconclusive
19,CCc1ccccc1Nc1ccc(C(=O)O)cc1N,inconclusive
20,O=C(C1CCN(S(=O)(=O)c2cccnc2)CC1)N1CCN(c2ccc(Cl)cc2)CC1,inconclusive
21,CCOC(=O)c1cnn(-c2sc(C(=O)OCC)c(C)c2C(=O)OCC)c1N,inconclusive
22,O=C(Cn1ncc2c(=O)oc3ccccc3c21)N1CCN(c2ccccn2)CC1,inconclusive
23,Cc1nc(S(=O)(=O)N2CCOCC2)c(C#N)c(C)c1Cl,inconclusive
24,COc1ccc(Nc2nc(N3CCCC3)c3ccccc3n2)cc1,inactive: -13.5%
25,CC1=C(C(=O)OC2CCCCC2)C(c2cccnc2)n2nnnc2N1 (configuration not stated),inconclusive

row,Compound,activation
1,CN1CCN(CCCNC(=O)c2cc3c(=O)oc4ccccc4c3s2)CC1,inconclusive
2,CCOc1ccc(NC(=O)N2CC=C(n3c(=O)[nH]c4ccccc43)CC2)cc1,inconclusive
3,Nc1sccc1C(=O)c1ccc(Cl)cc1,inconclusive
4,CC(=O)C1C(c2cn(-c3ccccc3)nc2-c2cccs2)NC(=O)NC1(O)C(F)(F)F (configuration not stated),inconclusive
5,CCC1c2ccc(C)n2CCN1C(=O)Nc1cc(Cl)ccc1OC (configuration not stated),inconclusive
6,COc1ccccc1OCC(O)Cn1nc(C)cc1C (configuration not stated),inconclusive
7,CS(=O)(=O)c1nc(-c2cccs2)cc(C(F)(F)F)n1,inconclusive
8,CC(C)Cc1cc(C(=O)Nc2cc(Br)ccc2O)no1,inconclusive
9,COc1ccc(OC)c(CCNC(=O)CC2Oc3ccc(C)cc3NC2=O)c1 (configuration not stated),inconclusive
10,CCC(C)N(CCNC(=O)CC1Oc2ccc(C)cc2NC1=O)C1CCCCC1 (configuration not stated),inconclusive
11,O=C(CCn1c(=O)oc2ccccc21)NCc1cccs1,inconclusive
12,COc1ccc(C)cc1NC(=O)C1CCCN(S(=O)(=O)c2cccc3nonc23)C1 (configuration not stated),inactive: -6%
13,Cc1cc(N2CCN(C(c3ccccc3)c3ccc(Cl)cc3)CC2)n2ncnc2n1 (configuration not stated),inconclusive
14,Cc1noc(C)c1S(=O)(=O)N1CCCC(C(=O)NCCC2=CCCCC2)C1 (configuration not stated),inconclusive
15,CCN1CCCC1CNC(=O)CCc1nc(-c2ccc(C)cc2)no1 (configuration not stated),inconclusive
16,Cc1cccc(N2CCN(C(=O)C3CCCN(S(=O)(=O)c4cccc5cccnc45)C3)CC2)c1C (configuration not stated),inactive: -5.4%
17,CC1(C)COCN1S(=O)(=O)c1ccc(C(=O)Nc2nnc(-c3ccc(Cl)s3)o2)cc1,inactive: -3.7%
18,Cc1ccc(C2C3=C(CC(C)(C)CC3=O)N(CCN3CCOCC3)C3=C2C(=O)CC(C)(C)C3)cc1,inconclusive
19,O=C(Nc1c2c(nn1-c1ccc(F)cc1)CS(=O)C2)C12CC3CC(CC(C3)C1)C2 (configuration not stated),inconclusive
20,CCCCNc1cc(C(=O)O)cc(S(N)(=O)=O)c1Oc1ccccc1,inactive: 5%
21,CC1=C(C(=O)NC(C)C)C2(CCC(C)CC2)OC1=O (configuration not stated),inconclusive
22,O=C1c2oc3ccccc3c(=O)c2C(c2cccc(O)c2)N1c1ccccn1 (configuration not stated),inconclusive
23,O=C(CSc1nc2c(cnn2-c2ccccc2)c(=O)[nH]1)c1ccc(Cl)cc1,inconclusive
24,COc1ccc(CCNC(=O)C2CCN(Cc3nc(-c4ccc(Cl)cc4)oc3C)CC2)cc1OC,inactive: -19%
25,CCN(CC)S(=O)(=O)c1ccc(C(=O)NCCc2cc3c(OC)ccc(OC)c3[nH]c2=O)cc1,inconclusive

# Molecules shown so far that contain bromine (2):
row,Compound,activation
16,COC(=O)c1cc(Br)c(=O)n(CCC2=CCCCC2)c1,inactive: 5%
8,CC(C)Cc1cc(C(=O)Nc2cc(Br)ccc2O)no1,inconclusive

# Additional structures.

row,Compound,activation
1,CCOc1ccccc1NC(=O)C1CCCN(S(=O)(=O)c2cccc3nsnc23)C1 (configuration not stated),inconclusive
2,Cc1ccc(C2=CC(c3ccc(N(C)C)cc3)n3nnnc3N2)cc1 (configuration not stated),inconclusive
3,O=S(=O)(c1ccc(OCC(O)CN2CCc3ccccc3C2)cc1)N1CCOCC1 (configuration not stated),inactive: 0.5%
4,C=CCOC(=O)C1=C(C)Nc2nnnn2C1c1cccc(OC)c1OC (configuration not stated),inconclusive
5,O=C(c1ccc(CS(=O)(=O)c2c(Cl)cccc2Cl)o1)N1CCN(c2ccccn2)CC1,inconclusive
6,COCCCNC(=O)CS(=O)(=O)Cc1nc(-c2cccc(OC)c2)oc1C,inactive: 7%
7,O=C(NC1(O)C(=O)c2ccccc2C1=O)c1ccccc1,inconclusive
8,CCOC(=O)N1CCN(C(=O)c2n[nH]c(=O)c3ccccc23)CC1,inactive: -9%
9,c1ccc(Cc2ccc(OCCn3cncn3)cc2)cc1,inconclusive
10,Cc1noc(/C=C/N(C)C)c1S(=O)(=O)N1CCCC(C(=O)NCc2ccccc2Cl)C1 (configuration not stated),inactive: -3%
11,Cc1onc(-c2c(Cl)cccc2Cl)c1C(=O)NCC1CCCO1 (configuration not stated),inconclusive
12,CN1CCN(C(=O)C2CCC(CNS(=O)(=O)c3cccc4cccnc34)CC2)CC1 (configuration not stated),inconclusive
13,C=CCn1c(SCn2nnc3ccccc3c2=O)nnc1-c1ccc(Br)cc1,inconclusive
14,O=C1c2ccccc2C(Nc2ccc(Cl)cn2)N1c1cccnc1 (configuration not stated),inactive: -3%
15,O=C(c1ccc2ccccc2n1)N1CCN(c2ccccc2)CC1,inconclusive
16,COCCN1C(=O)C(=O)/C(=C(/O)c2cccc(S(=O)(=O)N(C)C)c2)C12C(=O)N(C)c1ccccc12 (configuration not stated),inactive: 1%
17,CCOc1cc2[nH]c(=O)n(CCC(=O)NCc3ccc(OC)cc3)c(=O)c2cc1OCC,inactive: 1%
18,COc1cc(/C=c2\sc3nc(-c4ccncc4)nn3c2=O)ccc1OC(C)=O,inconclusive
19,COc1ccc(NC(=O)CN2CC(c3ccccc3)CC2=O)cc1OC (configuration not stated),inconclusive
20,CCC(C)(C(=O)NC1CCCC1)N(Cc1cccs1)C(C)=O (configuration not stated),inconclusive
21,O=C(Nc1nnc(-c2ccccc2Cl)o1)c1ccc(S(=O)(=O)N2CCCCCC2)cc1,inactive: 2%
22,COc1ccc(S(=O)(=O)Nc2cc(C(=O)NCCC(C)C)ccc2N2CCOCC2)cc1,inactive: -3%

# Six compounds picked at random from the list so far:
row,Compound,activation
22,COc1ccc(S(=O)(=O)Nc2cc(C(=O)NCCC(C)C)ccc2N2CCOCC2)cc1,inactive: -3%
5,O=C(c1ccc(CS(=O)(=O)c2c(Cl)cccc2Cl)o1)N1CCN(c2ccccn2)CC1,inconclusive
20,CCC(C)(C(=O)NC1CCCC1)N(Cc1cccs1)C(C)=O (configuration not stated),inconclusive
2,Cc1ccc(C2=CC(c3ccc(N(C)C)cc3)n3nnnc3N2)cc1 (configuration not stated),inconclusive
18,COc1cc(/C=c2\sc3nc(-c4ccncc4)nn3c2=O)ccc1OC(C)=O,inconclusive
16,COCCN1C(=O)C(=O)/C(=C(/O)c2cccc(S(=O)(=O)N(C)C)c2)C12C(=O)N(C)c1ccccc12 (configuration not stated),inactive: 1%
